Data published in paper PMC7819943, “Rice protein-binding microarrays: a tool to detect cis-acting elements near promoter regions in rice”.
This is one part of the list.

Protein sequences, listed by entry. Tags and fused reporters are not part of them.
UniProt Q0JBA9, entry or part of it: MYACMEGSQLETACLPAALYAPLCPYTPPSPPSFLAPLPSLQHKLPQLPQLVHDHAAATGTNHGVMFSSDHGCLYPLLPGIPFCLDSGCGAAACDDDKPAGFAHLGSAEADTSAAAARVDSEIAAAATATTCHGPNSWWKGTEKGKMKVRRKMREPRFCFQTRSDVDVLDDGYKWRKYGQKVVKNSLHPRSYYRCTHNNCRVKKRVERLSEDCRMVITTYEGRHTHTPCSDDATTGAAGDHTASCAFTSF

The sequences below were run against OsWRKY34 (Oryza sativa, UniProt Q0JBA9 1-250) (assay: protein-binding microarray (RPBM); PBS, 2% BSA, 51.3 ng/ul salmon testes DNA, 50 uM zinc acetate, 200 nM TF, 25 C, 1 h; high values mean tight binding). Conditions: protein: recombinant; tags: N-terminal polyhistidine and DsRed monomer fusion (pET32a); label: CyDye5-dUTP incorporated in the synthesized complementary strand; 3' TTTTT single-stranded linker to array surface; dsDNA, one strand shown.
How it was run: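 The binding signal is fluorescence intensity per feature, in arbitrary units, read on an Axon 4000B scanner. Polyhistidine- and DsRed-tagged transcription factors (N-terminal fusions) from E. coli BL21-CodonPlus were purified on Ni–NTA and applied at 200 nM for 1 h at 25 °C to a double-stranded, BSA-blocked custom Agilent array in buffer with 50 µM zinc acetate.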

Row | Sequence | binding signal
1 | GTGTCATCCCACCTGCCATTGCCCAGCAGACTCACTAGCACGGAGTCACCTAGTGCAG | 8340 fluorescence intensity (a.u.)
2 | GTCCCACGGCCTACCACCGCCCACCGATCGAAAACACAACCGGAGTCACCTAGTGCAG | 9290 fluorescence intensity (a.u.)
3 | ATGACATACTAATAGATGATACTATTGACTTTTTTTCTATCGGAGTCACCTAGTGCAG | 9980 fluorescence intensity (a.u.)
4 | GGCTCTCACCTCAAGCAAAGCTACCTCCATTCCATCGCTTCGGAGTCACCTAGTGCAG | 9640 fluorescence intensity (a.u.)
5 | ACCCTGTTTGCAGAAAGGCAATTTTCATTTCAACTTTCTTCGGAGTCACCTAGTGCAG | 8480 fluorescence intensity (a.u.)
6 | TTCAATCTGTTATTCTTGTGAGTTTAGTTAATTTTCAGTCCGGAGTCACCTAGTGCAG | 8720 fluorescence intensity (a.u.)
7 | GTGTATGTATATATGAGTATGTGTGTTTATATTGTATTTTCGGAGTCACCTAGTGCAG | 8460 fluorescence intensity (a.u.)
8 | CCACCACCACCACCACCACCACCGAACTCGATCCGCCATGCGGAGTCACCTAGTGCAG | 10200 fluorescence intensity (a.u.)
9 | GCTTCCGCCGACCGCCACCACTCTAGCCCTGCCGCTCCAGCGGAGTCACCTAGTGCAG | 8280 fluorescence intensity (a.u.)
10 | CTCCTCCATCCGTCCGTTGTGCCGCCGCCGCCATTGGTAGCGGAGTCACCTAGTGCAG | 8340 fluorescence intensity (a.u.)
11 | TTGTACTATATCCTAACGAGTTTTTGGTTCACACCTGTTTCGGAGTCACCTAGTGCAG | 9760 fluorescence intensity (a.u.)
12 | AGTTAGTTTCCTTCATCCATATAGTGTTAATCTGGATCTCCGGAGTCACCTAGTGCAG | 13400 fluorescence intensity (a.u.)
13 | TTTTCGTGGTTTCTCTGATTTTTTTTTTCGGGGAGTAGTTCGGAGTCACCTAGTGCAG | 9210 fluorescence intensity (a.u.)
14 | TATACTGCTGCTCCATTTGCCCTTAATTATGCTCTCTCAACGGAGTCACCTAGTGCAG | 8760 fluorescence intensity (a.u.)
15 | GAGAGGAGGAGGAGGAGGAGGGGATTCATTCACGTGGCTTCGGAGTCACCTAGTGCAG | 8190 fluorescence intensity (a.u.)
16 | CATCAGTCTGAAACCAAACATTTCTGTTTAACGTCAACCCCGGAGTCACCTAGTGCAG | 8180 fluorescence intensity (a.u.)
17 | AATTGCAATGCTTAGCTGCGTCACTGATTCAGAACATTCACGGAGTCACCTAGTGCAG | 9760 fluorescence intensity (a.u.)
18 | GTGCGTGCGACCCACTTCCCTCGACGATGGCGTGTACTTGCGGAGTCACCTAGTGCAG | 8370 fluorescence intensity (a.u.)
19 | CGCGTTGCCTCTCCGTCCTCTCCTCCGCAGCTTCCCAACTCGGAGTCACCTAGTGCAG | 8960 fluorescence intensity (a.u.)
20 | ATTCCTATGTTTTTCCTGCGCTCCAATCAAACGACAATTCCGGAGTCACCTAGTGCAG | 9150 fluorescence intensity (a.u.)
21 | CGACAACACAGCATCTGTTGGGCCCGATCCACCTATATTACGGAGTCACCTAGTGCAG | 8390 fluorescence intensity (a.u.)
22 | CCACAGCCACGACATCGCCATCAACGCCCTCGAGCTCGCCCGGAGTCACCTAGTGCAG | 8200 fluorescence intensity (a.u.)
23 | ATTACCAAACTATACTACTGCTCGACACGGTTCGTTTTTTCGGAGTCACCTAGTGCAG | 11200 fluorescence intensity (a.u.)
24 | GGCCCATGTGATTCCACTGCCCCATGAGAAGCGCTGCGCGCGGAGTCACCTAGTGCAG | 8390 fluorescence intensity (a.u.)
25 | TCTCTGAAACTACTCTGCTCGCTGCTGTCTCACACTCTCTCGGAGTCACCTAGTGCAG | 9080 fluorescence intensity (a.u.)
26 | GTCTTTTGGTGGGTTGGAGATCATTTTCATATCCCATTAGCGGAGTCACCTAGTGCAG | 9160 fluorescence intensity (a.u.)
27 | CTGCCTCCTCCTTCTGTGATCACTTCTTGCAAACCAATCGCGGAGTCACCTAGTGCAG | 8050 fluorescence intensity (a.u.)

Row | Sequence | binding signal
28 | GTATTATCTTTTTACCCTTTAAACTTCTGATCTTGGTTGTCGGAGTCACCTAGTGCAG | 9080 fluorescence intensity (a.u.)
29 | CCTGGCCTCCTCCCTCTCGCTCTACTCTATCGTCGTCTTCCGGAGTCACCTAGTGCAG | 11700 fluorescence intensity (a.u.)
30 | TTTGCACTCAGACTGTCCTTACTAACTGCTTTTTTTATAACGGAGTCACCTAGTGCAG | 10100 fluorescence intensity (a.u.)
31 | GGGGTGGAATTGTGTTGGGTTTCTTTGGTTGAGGAGAGAGCGGAGTCACCTAGTGCAG | 16000 fluorescence intensity (a.u.)
32 | CCTTAACACTTAATCCATGTGATGCATCTGTCATGCAACTCGGAGTCACCTAGTGCAG | 8250 fluorescence intensity (a.u.)
33 | CTATCGCGGCCGTCCCCGCATCCTACAGCTTTGCCCGCACCGGAGTCACCTAGTGCAG | 9210 fluorescence intensity (a.u.)
34 | ACACTCTCGCCGTCGCCGCCTCCTCGCCTCCGCTTACTCCCGGAGTCACCTAGTGCAG | 16700 fluorescence intensity (a.u.)
35 | TCACCGCTGCACTATCCAGTGTATCTCCACCCATGCGTAACGGAGTCACCTAGTGCAG | 12800 fluorescence intensity (a.u.)
36 | CTCCGTTTCACAATATAAGTCATTCTATTATTTCCCACATCGGAGTCACCTAGTGCAG | 8170 fluorescence intensity (a.u.)
37 | AGTTTGGTTGTAATCCTCCTAATCTTAATCGAATTGCTTCCGGAGTCACCTAGTGCAG | 8370 fluorescence intensity (a.u.)
38 | TCAATTCATACCACCACCTTTTCTTCTCGGCGTGTAATATCGGAGTCACCTAGTGCAG | 12100 fluorescence intensity (a.u.)
39 | CCGATCGCCGCGCCTCCCATTCCATTGCCACCACTGCCTTCGGAGTCACCTAGTGCAG | 8120 fluorescence intensity (a.u.)
40 | GCTGATGGAGTTGCTACCACCGCTTCTATCGCCACGTGTCCGGAGTCACCTAGTGCAG | 8780 fluorescence intensity (a.u.)
41 | GAGTTGAGGCATCATTGTATTCGGTTTTCACCGACCTCCACGGAGTCACCTAGTGCAG | 8260 fluorescence intensity (a.u.)
42 | GTCAAATTCATTGTCTCTACTCTCTAGGCCATTCAGCTAGCGGAGTCACCTAGTGCAG | 9150 fluorescence intensity (a.u.)
43 | CTTTGCTTCGCTTATCGTAATTGCCCACGTGGCACACAGTCGGAGTCACCTAGTGCAG | 10500 fluorescence intensity (a.u.)
44 | GGTTCCATGTTCTATCTGTGGACCTGGGGTTGGATGAATACGGAGTCACCTAGTGCAG | 9640 fluorescence intensity (a.u.)
45 | TAGGTAGGAGTAGGAGTAGTGTGCCGTGAGTTTATCCACGCGGAGTCACCTAGTGCAG | 9030 fluorescence intensity (a.u.)
46 | TAGAACAAACCATTCACTGACATGTAGCTACAACTCGGTTCGGAGTCACCTAGTGCAG | 8050 fluorescence intensity (a.u.)
47 | ACGAGCCCAGGATGAAGAGGTTTTGGGATGTGTTTTCTTACGGAGTCACCTAGTGCAG | 8170 fluorescence intensity (a.u.)
48 | ATTATTTTGCTCTCCCTCCATTTTTTTCGGTCTCAATATTCGGAGTCACCTAGTGCAG | 8410 fluorescence intensity (a.u.)
49 | AATCGAAACGCTCTCACGGGCTCACCATCAATTCGACGCACGGAGTCACCTAGTGCAG | 9970 fluorescence intensity (a.u.)
50 | GCACGATGCAGCCTCGTCGCCCAGCCGCCCCTACCTGCTTCGGAGTCACCTAGTGCAG | 8440 fluorescence intensity (a.u.)
51 | TTCGCCAGTCCGGTTTGCCGGCCTTGTGCGCTCGTCGTTTCGGAGTCACCTAGTGCAG | 8140 fluorescence intensity (a.u.)
52 | ACCCCATCACGTGTTCCACACACCCGACCGCGACGCGTCGCGGAGTCACCTAGTGCAG | 8420 fluorescence intensity (a.u.)
53 | CTTCTTCTTCGTCTTCCACCCATTGCTTCTTGCTTTCTTTCGGAGTCACCTAGTGCAG | 11200 fluorescence intensity (a.u.)
54 | CTCAGAGACTGCATCTCACCAAACCGCCATTAATTTACACCGGAGTCACCTAGTGCAG | 10100 fluorescence intensity (a.u.)

Copied from the list:
Value of ACACTCTCGCCGTCGCCGCCTCCTCGCCTCCGCTTACTCCCGGAGTCACCTAGTGCAG under binding signal: 16700 fluorescence intensity (a.u.)
Value of GTATTATCTTTTTACCCTTTAAACTTCTGATCTTGGTTGTCGGAGTCACCTAGTGCAG under binding signal: 9080 fluorescence intensity (a.u.)
Value of CTTCTTCTTCGTCTTCCACCCATTGCTTCTTGCTTTCTTTCGGAGTCACCTAGTGCAG under binding signal: 11200 fluorescence intensity (a.u.)
Value of CCTTAACACTTAATCCATGTGATGCATCTGTCATGCAACTCGGAGTCACCTAGTGCAG under binding signal: 8250 fluorescence intensity (a.u.)
Value of AGTTTGGTTGTAATCCTCCTAATCTTAATCGAATTGCTTCCGGAGTCACCTAGTGCAG under binding signal: 8370 fluorescence intensity (a.u.)
